Laboratory results published in patent US5240962A, “Antiobesity and fat-reducing agents” (priority 1991, dated 1993).

Experiment: Effect on fat content of broiler chickens
Format: in vivo
Settings: 27 days, broilers
Protocol: Four groups of 5 seven-day old broiler having an average weight of 129 g were used. A test diet was available ad libitum to all birds during the test period (27 days).
Control birds received no test compound. […] At the conclusion of the test, all birds were sacrificed and processed to determine fat weights and body weights. Feed intake was also recorded.

With CCCCCCCCCCCCCCCc1cccc(O)c1C(=O)O [Compound 1, 6 - Pentadecylsalicylic Acid] the “Feed Consumed” value (0.1% in diet) was 2000 g and the “Feed Consumed” value (0.2% in diet) was 2250 g.
